Source: PubChem BioAssay AID493014 (National Center for Advancing Translational Sciences (NCATS), 2011)
The list shows a part of the results. Shown are side measurements of this screen, not its main read-out; they come without a call. Most of these compounds were active or inconclusive in the main read-out, so they are no random draw. Words in brackets tell the shape of the fitted curve; partial curves, single points and poor fits give uncertain potencies.

Test: qHTS Assay to Find Inhibitors of Chronic Active B-Cell Receptor Signaling
Settings: ABC-DLBCL IkBa-CBG/CBR reporter, luminescence ratio (green luciferase fused to IkBa over red control in TMD8 lymphoma cells), 4 h
In short: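 TMD8 ABC-DLBCL cells carrying doxycycline-inducible green luciferase fused to IkappaBalpha plus unfused red luciferase were exposed to compounds (up to 46 uM) for 4 hrs at 37C. Activity came from the overlap-corrected green/red luminescence ratio.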

[1] = measured here: CBR red luminescence, cell number
[2] = measured here: IkBa-CBG green luminescence

SMILES: CCOc1ccc(-c2noc(-c3cccnc3)n2)cc1OCC
- AC50 [1]: 0.447 µM [rising, full curve, poor fit]

SMILES: COc1ccccc1NC(=O)Cn1c(C)cc(=O)c2cccc(OC)c21
- AC50 [1]: 35.5 µM [falling, single point]

SMILES: COc1ccc(/C(C)=N/NC(=S)NCc2ccco2)cc1
- AC50 [2]: 29.1 µM [falling, single point]

SMILES: O=C(Nc1nnc(-c2ccccc2)s1)c1cc(S(=O)(=O)N2CCOCC2)c(Cl)cc1Cl
- AC50 [1]: 2.91 µM [rising, partial curve, poor fit]

SMILES: CCc1nnc(NC(=O)CSc2nnc(CNc3cccc(C)c3)n2-c2ccccc2)s1
- AC50 [1]: 10 µM [falling, partial curve, poor fit]

SMILES: O=C(Cc1ccccc1)Nc1nnc(-c2ccccc2)o1
- AC50 [1]: 35.5 µM [falling, single point]

SMILES: CN(C)S(=O)(=O)c1cccc(C(=O)N(Cc2ccc(F)cc2)Cc2ccco2)c1
- AC50 [1]: 3.16 µM [rising, partial curve, poor fit]

SMILES: CN(C)c1ccc(P(=O)(COc2ccc([N+](=O)[O-])cc2)c2ccc(N(C)C)cc2)cc1
- AC50 [1]: 5.62 µM [falling, single point]

SMILES: C=CCNC(=O)CN(c1ccc(OC)cc1OC)S(C)(=O)=O
- AC50 [1]: 6.51 µM [rising, single point]

SMILES: COc1nc2ccccc2nc1N1CCN(Cc2ccc3c(c2)OCO3)CC1
- AC50 [1]: 31.6 µM [rising, single point]

SMILES: Cc1cc(C(=O)N/N=C/c2c[nH]c3ccccc23)cs1
- AC50 [1]: 29.1 µM [falling, single point]

SMILES: CN(CC(=O)Nc1ccc(F)cc1)C(=O)CSc1nccn1C
- AC50 [1]: 16.4 µM [falling, partial curve, poor fit]

SMILES: Cc1c(C(=O)C(=O)N2CC=C(c3ccccc3)CC2)c2ccccc2n1C
- AC50 [1]: 23.1 µM [rising, single point]
- AC50 [2]: 18.4 µM [falling, partial curve, poor fit]

SMILES: COc1ccc(C(=O)N/N=C(\Cc2ncc[nH]2)c2ccccc2)cc1
- AC50 [1]: 35.5 µM [falling, single point]

SMILES: Cc1ccc(OC(=O)c2c(C)nn(-c3ccccc3)c2C)cc1
- AC50 [1]: 1.78 µM [rising, partial curve, poor fit]

SMILES: O=C(C1=C(c2ccccc2)C(=O)c2ccccc2C1=O)c1ccccc1
- AC50 [1]: 4.11 µM [falling, partial curve, poor fit]

SMILES: C/C(=C\C(=O)c1ccc(Br)cc1)NNC(=O)c1ccc(O)cc1
- AC50 [1]: 0.316 µM [falling, full curve]

SMILES: O=S(=O)(c1ccc(NC(=S)Nc2ccc3c(c2)OCO3)cc1)N1CCOCC1
- AC50 [1]: 10.3 µM [rising, partial curve, poor fit]

SMILES: Cc1ccccc1N=Nc1c(C)[nH]n(C(N)=S)c1=O
- AC50 [1]: 13 µM [rising, partial curve, poor fit]
- AC50 [2]: 1.46 µM [falling, full curve]

SMILES: O=C(CNC(=O)Cc1ccccc1)NCC(=O)OCC(=O)c1cccc2ccccc12
- AC50 [1]: 4.11 µM [rising, partial curve, poor fit]

SMILES: CCOC(=O)c1c(NC(=O)CSc2ncn[nH]2)sc(C)c1C
- AC50 [1]: 3.26 µM [falling, full curve, poor fit]

SMILES: COc1cc(O)c(C(CC(=O)N2CCCC(C)C2)c2ccc3c(c2)OCO3)c(OC)c1 (centres undefined)
- AC50 [1]: 20 µM [rising, single point]

SMILES: O=C(/C=C/c1ccc(S(=O)(=O)N2CCOCC2)cc1)NCc1ccccc1
- AC50 [1]: 0.092 µM [rising, full curve, poor fit]

SMILES: COc1ccccc1NC(=O)N1CCN(c2nnc(C)c3c(C)n(-c4ccccc4)nc23)CC1
- AC50 [1]: 10 µM [falling, partial curve, poor fit]

SMILES: CCOC(=O)N1CCC(N(C(=O)Nc2ccc(Cl)c(Cl)c2)C(C)CC)CC1 (centres undefined)
- AC50 [1]: 4.11 µM [rising, full curve, poor fit]

SMILES: CN(C)c1ccc(NS(=O)(=O)c2ccc(-c3csnn3)cc2)cc1
- AC50 [1]: 3.98 µM [falling, partial curve]

SMILES: CC(NC(=O)/C(C#N)=C/c1ccc(Cl)c([N+](=O)[O-])c1)c1ccccc1 (centres undefined)
- AC50 [1]: 20.6 µM [falling, partial curve]
- AC50 [2]: 25.9 µM [rising, partial curve, poor fit]

SMILES: COC(=O)c1c(NC(=O)C(=O)NCC2CCCO2)sc2c1CC(C)(C)OC2 (centres undefined)
- AC50 [1]: 5.62 µM [rising, single point]

SMILES: Cc1cc(=O)oc2cc(Oc3ccc(C(N)=O)cc3[N+](=O)[O-])ccc12
- AC50 [1]: 35.5 µM [falling, partial curve, poor fit]

SMILES: CCNC(=S)N/N=C(\C)c1ccc2ccccc2c1OC(F)F
- AC50 [1]: 35.5 µM [falling, single point]
- AC50 [2]: 25.1 µM [falling, single point]

SMILES: CC(=O)c1sc(Nc2nc3ccc(F)cc3s2)nc1C
- AC50 [2]: 22.4 µM [falling, single point]

SMILES: O=C(CCN1C(=O)S/C(=C\c2ccccc2)C1=O)Nc1ccc(O)cc1C(=O)O
- AC50 [1]: 12.6 µM [falling, single point]

SMILES: Cc1cccc(-n2cnc(C(=O)Nc3cccnc3)c2)n1
- AC50 [1]: 1.26 µM [falling, full curve]

SMILES: COc1ccc(CN(C)CC(=O)Nc2cccc(S(=O)(=O)N3CCCC3)c2)cc1F
- AC50 [1]: 29.1 µM [falling, single point]

SMILES: C/C(CC(=O)Nc1ccc(Cl)cc1Cl)=N\NC(=O)C(=O)NCCO
- AC50 [1]: 16.4 µM [falling, partial curve]

SMILES: CC(=O)c1sc(NC(=O)CN2C(=O)NC3(CCCC3)C2=O)nc1-c1ccccc1
- AC50 [1]: 18.4 µM [falling, partial curve, poor fit]

SMILES: COc1ccc(C(=O)C[n+]2ccc(N)c(C)c2C)cc1
- AC50 [1]: 35.5 µM [rising, single point]

SMILES: Oc1c(Cl)cc(Cl)c2cccnc12
- AC50 [1]: 6.31 µM [rising, single point]
- AC50 [2]: 22.4 µM [falling, partial curve, poor fit]

SMILES: CCc1ccc(N2CC(C(=O)NCc3ccc4c(c3)OCO4)CC2=O)cc1 (centres undefined)
- AC50 [1]: 28.2 µM [falling, single point]

SMILES: Cc1cccc(-n2nc(C)c3c2NC2=C(C(=O)CCC2)C3c2ccccn2)c1 (centres undefined)
- AC50 [1]: 35.5 µM [falling, single point]

SMILES: c1ccc(-n2c3ccccc3c3ccccc32)cc1
- AC50 [1]: 14.1 µM [rising, single point]

SMILES: COc1cc(OC)cc(-c2nc3ccccc3c(=O)o2)c1
- AC50 [1]: 2.31 µM [falling, partial curve]

SMILES: N=C1SCC(=O)N1c1ncc(Cc2cccc(Cl)c2)s1
- AC50 [1]: 7.08 µM [rising, full curve]
- AC50 [2]: 22.4 µM [falling, partial curve]

SMILES: O=C1c2ccccc2/C(=C\C#Cc2ccccn2)N1c1ccccc1
- AC50 [1]: 16.4 µM [falling, single point]

SMILES: COc1nc(NCCC2=CCCCC2)nc(OC)n1
- AC50 [1]: 2.51 µM [rising, full curve, poor fit]

SMILES: CSc1ccccc1NC(=O)Nc1cccc(F)c1
- AC50 [1]: 2.82 µM [falling, partial curve, poor fit]

SMILES: CCOC(=S)SCC(=O)Nc1ncc(C)s1
- AC50 [1]: 6.31 µM [falling, partial curve]

SMILES: COc1cc(NC(=O)COc2cccc(OC)c2)cc(OC)c1
- AC50 [1]: 31.6 µM [falling, partial curve, poor fit]

SMILES: S=C(NCCc1ccccc1)N/N=C/c1ccccc1Cl
- AC50 [1]: 1.64 µM [rising, partial curve, poor fit]

SMILES: CC1CN(C(=O)COc2ccc3ccccc3c2Br)CC(C)O1 (centres undefined)
- AC50 [1]: 2 µM [rising, partial curve]

SMILES: COc1ccc(-c2cc(C(=O)NC(C)C)no2)cc1
- AC50 [1]: 10.3 µM [falling, partial curve]

SMILES: CN(C(=O)c1ccccc1)c1nc2ccccc2s1
- AC50 [1]: 12.6 µM [falling, single point]

SMILES: Cc1cc(NCCCn2ccnc2)n2nc(-c3ccc(Cl)cc3)cc2n1
- AC50 [1]: 35.5 µM [falling, single point]

SMILES: CCOc1nc(Nc2ccccc2F)nc(OCC)n1
- AC50 [1]: 35.5 µM [falling, partial curve, poor fit]

SMILES: COc1ccc(N2C(=S)NC3N2C(=S)NC3(C)c2ccccc2)cc1 (centres undefined)
- AC50 [1]: 35.5 µM [falling, single point]

SMILES: Cc1nn(CC(=O)Nc2ccccn2)c(=O)c2ccccc12
- AC50 [1]: 0.103 µM [rising, full curve, poor fit]

SMILES: CC(C)(CC(=O)NCc1ccc(Cl)cc1Cl)CC1=NS(=O)(=O)c2ccccc2N1
- AC50 [1]: 35.5 µM [falling, single point]

SMILES: CN(C)c1ccc(/C=C/c2nc3ccccc3c(=O)n2-c2ccc(C(=O)O)cc2)cc1
- AC50 [1]: 17.8 µM [falling, partial curve, poor fit]

SMILES: COc1cccc2cc(C(=O)NCCc3ccccc3)oc12
- AC50 [1]: 35.5 µM [falling, single point]

SMILES: O=C1c2ccccc2-c2onc3ccc(Oc4ccccc4)c1c23
- AC50 [1]: 1.84 µM [falling, full curve]

SMILES: Cc1ccc(-c2cc3onc(-c4ccccc4)c3c(=O)n2C)cc1
- AC50 [1]: 0.0517 µM [falling, full curve]

SMILES: CN(CC(=O)Nc1ccccc1C(F)(F)F)C(=O)c1ccccc1Sc1ccccc1C#N
- AC50 [2]: 23.1 µM [falling, partial curve, poor fit]

SMILES: CC(NS(=O)(=O)c1ccccc1)C(c1cccs1)N1CCOCC1 (centres undefined)
- AC50 [1]: 32.6 µM [rising, single point]
